These results are taken from paper PMC3402474 (PLoS ONE, 2012).

Sequences of proteins named here, by UniProt entry; tags and fusion partners are left off. Residues count along the entry.
UniProt P29311: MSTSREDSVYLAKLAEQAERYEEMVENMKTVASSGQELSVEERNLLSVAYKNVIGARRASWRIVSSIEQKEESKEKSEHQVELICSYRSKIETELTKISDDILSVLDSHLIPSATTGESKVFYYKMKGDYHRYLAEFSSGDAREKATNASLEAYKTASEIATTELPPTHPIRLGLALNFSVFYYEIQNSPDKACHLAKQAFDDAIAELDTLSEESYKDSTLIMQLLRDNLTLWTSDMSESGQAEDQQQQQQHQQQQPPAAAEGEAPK
UniProt P34730: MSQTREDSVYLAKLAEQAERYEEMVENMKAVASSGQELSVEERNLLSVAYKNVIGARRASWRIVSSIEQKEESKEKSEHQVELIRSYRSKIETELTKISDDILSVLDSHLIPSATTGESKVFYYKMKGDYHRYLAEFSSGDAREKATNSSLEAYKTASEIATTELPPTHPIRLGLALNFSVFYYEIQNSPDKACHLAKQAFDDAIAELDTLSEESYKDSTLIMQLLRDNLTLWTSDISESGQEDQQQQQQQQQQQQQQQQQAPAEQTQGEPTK
UniProt P00630, residues 34-167: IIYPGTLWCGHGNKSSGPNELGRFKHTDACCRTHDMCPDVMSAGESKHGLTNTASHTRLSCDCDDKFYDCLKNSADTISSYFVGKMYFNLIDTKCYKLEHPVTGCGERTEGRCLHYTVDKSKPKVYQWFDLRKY

These are yes or no findings as the source states them, for the method shown. Some results given as binding are weak or reduced against the parent protein; the word gives no strength.

The target in assay [1] is Bmh1 (S. cerevisiae) (UniProt P29311). Briefly: SPR; both purified.
In assay [2] the target is Bmh2 (S. cerevisiae) (UniProt P34730). Briefly: SPR; both purified.
The target in assay [3] is Bmh1 (S. cerevisiae) (UniProt P29311). Briefly: SPR; BiacoreX, 25°C; recombinant Bmh1 or Bmh2 in 50 mM Tris (pH 7.5), 150 mM NaCl, 0.1 mM CaCl2 immobilized to CM5 chips; 2 µM sPLA2 injected; dissociation monitored 180 s; responses corrected for surface density and molecular weights; both purified. A general note: SPR reads the build-up and loss of mass on a sensor chip optically.

Assay [4] has as its target Bmh2 (S. cerevisiae) (UniProt P34730). The assay is described as above.

Consider “bee venom sPLA2 (from UniProt P00630 34-167) (enzyme)”, for which the binding entry with Bmh1 (S. cerevisiae) [1] and with Bmh2 (S. cerevisiae) [2] was “binds” each time.

B1: ammodytin I2 (enzyme, UniProt P34180 17-137)
chain: NLYQFGNMIFKMTKKSALLSYSNYGCYCGWGGKGKPQDATDRCCFVHDCCYGRVNGCDPKLSIYSYSFENGDIVCGGDDPCLRAVCECDRVAAICFGENLNTYDKKYKNYPSSHCTETEQC
For the molecule B1, the binding entry with Bmh1 (S. cerevisiae) [3] and with Bmh2 (S. cerevisiae) [4] was “no binding (tested: 2 µM)” each time.
